US8835378B2, “Multi-domain amphipathic helical peptides and methods of their use” (The United States of America as represented by the …, priority 2004, dated 2014)
Some entries share one result that the patent states for a list of compounds.

Tested on: control cells
Type: binding, human
Conditions: maximum concentration tested; 4° C.

apolipoprotein A-I [apoA-I]
radiolabled L-37pA binding to control cells blocked by competitor: less than 5%
